Out of some 6,900 compounds screened, fewer than 10 were called active. Calls follow the shape of the dose curve; as a rule, active = well fitted curve in the direction sought with a large enough effect; inconclusive = small, poorly fitted or top-dose-only effect, or another doubt; inactive = no such curve, though single readings can be large or run the other way. This is one part of the list.
Target: Metallo-beta-lactamase type 2 (Klebsiella pneumoniae) (UniProt C7C422)
Experiment: qHTS to identify inhibitors of the New Delhi Metallo-beta-lactamase (NDM): primary screen against the NCATS Gemini Collection; also: % of control where 0% means no effect
Conditions: NDM-1 enzyme, meropenem hydrolysis, absorbance 300 nm; at 38.4 µM (top of the series) unless noted
In short: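 Meropenem hydrolysis (50 uM final) by 2 nM NDM-1 read as 300 nm absorbance after 30 min, following >30 min compound–enzyme preincubation in HEPES pH 7.0 with 1 uM ZnSO4 and 0.01% Tween20.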

By UniProt entry, the sequences of proteins in these tests, tags left out. Where a name states a change or a piece, a line headed by the entry shows the natural chain unless it says otherwise.
UniProt C7C422: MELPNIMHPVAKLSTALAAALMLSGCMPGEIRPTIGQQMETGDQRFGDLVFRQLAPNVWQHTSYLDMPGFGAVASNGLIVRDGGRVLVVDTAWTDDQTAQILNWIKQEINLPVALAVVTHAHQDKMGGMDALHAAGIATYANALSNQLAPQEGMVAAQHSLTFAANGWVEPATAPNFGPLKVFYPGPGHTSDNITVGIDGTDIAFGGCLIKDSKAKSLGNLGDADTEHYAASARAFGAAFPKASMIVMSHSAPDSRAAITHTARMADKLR

| SMILES | activity % (negative = inhibition) |
| --- | --- |
| CC(CCC(=O)N1CCn2nc(Cc3ccccc3)cc2C1)N1CCCC1 (stereo not drawn) | inactive: 0.806% |
| CC1(C)[C@H](Cc2cc(-c3ccccc3)on2)C[C@@H]1NCC1CC1 | inactive: 8.09% [at 57.5 µM] |
| Cc1noc(C)c1C(=O)N[C@@H]1CN(c2ncccn2)C[C@H]1CN(C)C | inactive: 0.997% |
| Cc1ccc([S+](=O)([O-])NC2CCN(CCn3nc4n(c3=O)CCCC4)C2)cc1 (stereo not drawn) | inactive: 1.86% |
| O=C(CCc1nnn2c1CN(C(=O)COc1ccc(F)cc1)CC2)NCc1ccccc1 | inactive: -4.92% |
| CC(=O)N1CCC(OCCOc2ccccc2)CC1 | inactive: -7.31% |
| COCCc1noc(-c2ccccc2OC2CN(C(=O)Cc3c[nH]c4ccccc34)C2)n1 | inactive: -0.0178% |
| Nc1ncccc1CNC(=O)[C@H]1CCC[C@H](O)C1 | inactive: 16.9% |
| Cc1cc(C(=O)N2CCC(N3CCCC(C(=O)NCCc4ccccc4)C3)CC2)n[nH]1 (stereo not drawn) | inactive: 5.67% |
| C[S+](=O)([O-])N1CCC(Cn2ccc3c(N4CCOCC4)nc(-c4cccc5[nH]ncc45)cc32)CC1 | inactive: 33.7% |
| CC(C)c1noc(-c2cn(C3CCN(C(=O)COc4ccccc4)CC3)nn2)n1 | inactive: 0.677% |
| O=C1c2cncnc2OCC(CNC(=O)C2(c3ccccc3)CC2)N1Cc1ccccc1 (stereo not drawn) | inactive: 0.897% [at 57.5 µM] |
| O=c1c2c(CO)c(-c3ccccc3)nn2ccn1CCOc1ccccc1 | inactive: -3.4% |
| O=C(N[C@H]1CCN2C(=O)c3cc(/C=C/c4ccccc4)ccc3NC(=O)[C@H]12)C1CCCC1 | inactive: 35.6% [at 57.5 µM] |
| CC(C)(O)CCc1cccc(C(=O)NCCCc2ccccn2)c1 | inactive: -14.2% |
| CN(CC1CCOCC1)S(=O)(=O)c1ccc(Cl)cc1 | inactive: -2.55% |
| CN1CCC(N2CC[C@H](c3nc4ccc(C(F)(F)F)cc4[nH]3)C2)CC1 | inactive: 0.273% [at 57.5 µM] |
| O=C1NCCCCCCN(S(=O)(=O)Cc2ccccc2F)[C@H]2CCC[C@@H]12 | inactive: 2.23% |
| CCCN1CC2(CCN(C)CC2)CC1C(=O)N(C)Cc1ccn[nH]1 (stereo not drawn) | inactive: -4.1% |
| COc1ccc(CCCN2C(=O)O[C@@H]3CN(S(=O)(=O)N(C)C)C[C@@H]32)cc1 | inactive: 8.51% |
| COc1ccc(-c2onc(C)c2C(=O)NCCCCc2ccccc2)cc1 | inactive: 2.23% |
| CCOc1cccc(-c2nc(C(=O)Nc3ccc(F)cc3)cs2)c1 | inactive: 19% |
| CSCC[C@H](N)C(=O)N1CCC2(CCC(=O)N(Cc3ccccc3)C2)CC1 | inactive: -0.669% |
| C=CCN1CC2(CCC1=O)CCN(C(=O)CC(C)n1ccnc1C)CC2 (stereo not drawn) | inactive: 37.7% |
| Cn1cccc1C(=O)N1CC[C@H](CO)[C@H](NC(=O)C2CC2)C1 | inactive: 4.08% |
| COC(=O)CNC(=O)c1nc(-c2ccc(Cl)nc2)c2ccccn12 | inactive: -6.02% |
| COc1ccccc1-c1cn2c(n1)CO[C@@H](CNC1CCOCC1)C2 | inactive: 0.191% [at 57.5 µM] |

Ordered by SMILES length (falling): part of the list above

| SMILES | activity % (negative = inhibition) |
| --- | --- |
| COCCc1noc(-c2ccccc2OC2CN(C(=O)Cc3c[nH]c4ccccc34)C2)n1 | inactive: -0.0178% |
| O=C1c2cncnc2OCC(CNC(=O)C2(c3ccccc3)CC2)N1Cc1ccccc1 (stereo not drawn) | inactive: 0.897% [at 57.5 µM] |
| C=CCN1CC2(CCC1=O)CCN(C(=O)CC(C)n1ccnc1C)CC2 (stereo not drawn) | inactive: 37.7% |

The results go on:

| SMILES | activity % (negative = inhibition) |
| --- | --- |
| Cn1cc(Nc2ccc(Cl)cc2)c2nc(CN3CC[S+](=O)([O-])CC3)cn2c1=O | inactive: 29.2% [at 57.5 µM] |
| COC[C@H]1C[C@@H](NC(=O)Nc2ccc(F)cc2)[C@H](O)[C@@H]1O | inactive: 26.3% [at 57.5 µM] |
| CC1(C(=O)N2CCc3ccccc32)CCCCC(=O)N1 (stereo not drawn) | inactive: 1.12% |
| Cc1cc(C)n2nc(C)c(C(=O)N3CCCC(c4cccc(C(=O)O)c4)C3)c2n1 (stereo not drawn) | inactive: -5.79% |
| COc1ccc(CC(=O)N2CCC3(CC2)C(=O)NCN3C(=O)C2CCCC2)cc1 | inactive: -1.94% |
| CCn1ccnc1CN(C)Cc1cccc(OCC(O)CN(C)C2CCCCC2)c1 (stereo not drawn) | inactive: -10.7% |
| Cc1ccc(NC(=O)Cn2c(N3CCN(c4ccccc4)CC3)nc(C)cc2=O)cc1 | inactive: 11.3% |
| O=C(NCc1cccs1)c1c[nH]c2ncccc12 | inactive: 10.3% [at 57.5 µM] |
| Cn1nccc1C(=O)N1CC(C(=O)Nc2ccccn2)C2(CCOCC2)C1 (stereo not drawn) | inactive: -0.568% |
| Cc1nn2c(c1-c1ccccc1OCc1ccccc1)N(Cc1nccn1C)CCC2 | inactive: -5.19% [at 57.5 µM] |
| COc1ccc(CC2CCOC3(CCN(S(=O)(=O)c4c(C)nn(C)c4C)CC3)C2)cc1 (stereo not drawn) | inactive: 6.76% |
| Cc1cn(C[C@H](NC(=O)c2cccc(F)c2)C(=O)O)c(=O)[nH]c1=O | inactive: 5.68% [at 57.5 µM] |
| CC1=C[C@@H](CN2CCC(O)CC2)[C@H](C(C)C)C[C@H]1Cc1nnc(-c2ccncc2)o1 | inactive: -0.749% [at 57.5 µM] |
| O=C(CCC1CCCN(Cc2cccn2-c2ccccn2)C1)Nc1ccccc1F (stereo not drawn) | inactive: -2.8% |
| Cc1nn(C)c(=O)n1C1CCN(C(=O)c2ccco2)CC1 | inactive: 1.16% |
| O=C(NC1CCCN(c2cc(-c3ccc(F)cc3)[nH]n2)C1)c1cnccn1 (stereo not drawn) | inactive: -0.18% |
| Cc1cnc(CCNC(=O)Cc2ccncc2)n1CC1CC1 | inactive: 0.362% |
| CN(Cc1nccs1)C(=O)CC(c1ccccc1)c1cccc(Cl)c1 (stereo not drawn) | inactive: 0.0291% |
| Cc1noc(C)c1[S+](=O)([O-])N1CCn2cc(C(=O)Nc3ccc(Cl)cc3Cl)nc2C1 | inactive: 0.75% |
| CCOc1ccccc1C(=O)N1CCC(c2n[nH]c(=O)n2Cc2ccc(OC)cc2)CC1 | inactive: 0.475% |
| Cc1ccccc1-c1cn(C)c(=O)n2cc(CNc3ccccc3)nc12 | inactive: 1.9% [at 57.5 µM] |
| COc1ccccc1C(C(=O)O)N1CCC(OCc2cccnc2)CC1 (stereo not drawn) | inactive: -3.99% |
| CN1CCC(Nc2ncc(C(C)(C)C(=O)O)c(N3CCOCC3)n2)CC1 | inactive: 12.5% |
| OC[C@@H]1O[C@H](CNCc2cccc(Cl)c2)[C@H](N2CCN(c3ccccn3)CC2)[C@@H]1O | inactive: 9.15% |
| O=C(O)CC1CCCCN(Cc2ccccc2)C1=O (stereo not drawn) | inactive: 17.2% |
| O=C(CCc1nnn2c1CN(Cc1cn[nH]c1-c1ccc(F)cc1)CC2)N1CCCC1 | inactive: 79.3% |

— PubChem BioAssay AID1794845 (National Center for Advancing Translational Sciences (NCATS), 2023)
